In PMC8245568, “Xyloglucan processing machinery in Xanthomonas pathogens and its role in the transcriptional activation of virulence factors” (Nature Communications, 2021):
No constants are given. Whether binding was seen depends on the method and setting.

Biological target: XacGalD S106R mutant (Xanthomonas citri pv. citri 306)
Assay: SEC-MALS; 25 °C; Superdex 200 HR 10/300 GL; 250 μL of protein at 50 μmol L^-1 injected; 20 mmol L^-1 HEPES pH 7.5, 150 mmol L^-1 NaCl; both purified

## XacGalD S106R mutant (from UniProt A0AAI7ZEX2 73-585) (enzyme)
  binding: no binding (tested: 50 μmol L^-1)
